Values quoted from earlier work in US20210346357A1 (priority 2020, published 2021).
At least one structure is not confirmed: it was looked up by name or label, or the drawing left a doubt.

Test system: COVID-19
Settings: plus SoC therapy, compared to SoC alone, cited from earlier work

In the case of N#CC[C@H](C1CCCC1)n1cc(-c2ncnc3[nH]ccc23)cn1 [ruxolitinib], the “secondary and exploratory endpoints including mortality rate by Day 29, and time to recovery” value is given as “did not show clinically relevant benefit” and the “proportion of patients with severe complications (death, respiratory failure requiring mechanical ventilation or ICU admission) by Day 29” value (primary endpoint) is given as “no statistically significant reduction”.
